PubChem BioAssay AID1224826 – NIAID – 2016

Screen: 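Knock-downs that raise or lower Tnf reporter signal after endotoxin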 (primary screen)
System: RAW264.7 G9 macrophages from mouse bearing reporters for p65 (GFP) and the Tnf promoter (mCherry)
Knock-down reagent: siRNA pool against mouse genes, 100 nM
Timing: 16 h of LPS stimulation, after 2 days of siRNA transfection
Conditions: bacterial lipopolysaccharide (Salmonella minnesota R595), 10 ng/ml
Measured: 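Imaged Tnf reporter mCherry in nuclei, minus background, normalised per plate to the median and expressed as robust z-scores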
Scale: Tnf reporter robust z-score: higher = stronger Tnf promoter reporter signal after LPS; Tnf reporter intensity: higher = stronger Tnf promoter reporter signal
Rule for the call: 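Called active when robust z-score is at most -1.3, matching the median of the Tlr4 knock-down control, or over 3; control wells and wells with under 50 cells never active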
Calls: active = Tnf reporter clearly lowered or raised; inactive = no clear change in Tnf reporter
Shown is an unselected part of about 17,000 reagents tested. Of all reagents, about 1,110 (6.6%) got an active call. 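Active means lowered or raised reporter signal; replicate intensities are raw and not normalised per plate.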 Further read-outs or replicates are left out here. No sequences are given here.

target,PubChem SID,Tnf reporter robust z-score,fewer than 50 cells in well,"Tnf reporter intensity, replicate 1",Outcome
1110038F14Rik,SID315477089,1.02,enough cells in well,358,inactive
Arhgap39,SID315478277,-0.76,enough cells in well,128,inactive
Rgs5,SID315468970,-0.11,enough cells in well,272,inactive
Spock2,SID315476055,2.78,enough cells in well,197,inactive
Trim21,SID315469470,-0.87,enough cells in well,154,inactive
Ivd,SID315471476,0.05,enough cells in well,216,inactive
Tfpi2,SID315469685,-0.2,enough cells in well,229,inactive
Cyp2ab1,SID315478315,-0.71,enough cells in well,149,inactive
Slc5a4b,SID315472107,-0.37,enough cells in well,84.5,inactive
Nrp1,SID315468244,0.07,enough cells in well,221,inactive
Abhd6,SID315472201,,fewer than 50 cells per well; well left out of calls,178,inactive
Metrnl,SID315477624,-0.11,enough cells in well,211,inactive
Or7e174,SID315480222,,fewer than 50 cells per well; well left out of calls,44.8,inactive
Perm1,SID315474892,,fewer than 50 cells per well; well left out of calls,127,inactive
Bmpr2,SID315465659,-1.06,enough cells in well,136,inactive
Satb1,SID315469101,-0.14,enough cells in well,144,inactive
Krt20,SID315472647,-0.75,enough cells in well,121,inactive
Mmrn1,SID315474160,-0.03,enough cells in well,227,inactive
Hif1an,SID315481126,0.09,enough cells in well,167,inactive
Akap10,SID315471637,0.28,enough cells in well,197,inactive
Engase,SID315478116,0.91,enough cells in well,311,inactive
Trappc2b,SID315472180,,fewer than 50 cells per well; well left out of calls,175,inactive
Gpn3,SID315473401,0.45,enough cells in well,186,inactive
Mucl2,SID315469453,2.79,enough cells in well,200,inactive

No new results follow: 4 of the entries above.
target,PubChem SID,Tnf reporter robust z-score,fewer than 50 cells in well,"Tnf reporter intensity, replicate 1",Outcome
Akap10,SID315471637,0.28,enough cells in well,197,inactive
Engase,SID315478116,0.91,enough cells in well,311,inactive
Trappc2b,SID315472180,,fewer than 50 cells per well; well left out of calls,175,inactive
Gpn3,SID315473401,0.45,enough cells in well,186,inactive
